{"source": "paper PMC3416868", "about": "“The Fission Yeast GATA Factor, Gaf1, Modulates Sexual Development via Direct Down-Regulation of ste11+ Expression in Response to Nitrogen Starvation”", "key": {"[1]": {"target": "T1, GST-Gaf1 (UniProt Q10280)", "T1 sequence (looked up)": "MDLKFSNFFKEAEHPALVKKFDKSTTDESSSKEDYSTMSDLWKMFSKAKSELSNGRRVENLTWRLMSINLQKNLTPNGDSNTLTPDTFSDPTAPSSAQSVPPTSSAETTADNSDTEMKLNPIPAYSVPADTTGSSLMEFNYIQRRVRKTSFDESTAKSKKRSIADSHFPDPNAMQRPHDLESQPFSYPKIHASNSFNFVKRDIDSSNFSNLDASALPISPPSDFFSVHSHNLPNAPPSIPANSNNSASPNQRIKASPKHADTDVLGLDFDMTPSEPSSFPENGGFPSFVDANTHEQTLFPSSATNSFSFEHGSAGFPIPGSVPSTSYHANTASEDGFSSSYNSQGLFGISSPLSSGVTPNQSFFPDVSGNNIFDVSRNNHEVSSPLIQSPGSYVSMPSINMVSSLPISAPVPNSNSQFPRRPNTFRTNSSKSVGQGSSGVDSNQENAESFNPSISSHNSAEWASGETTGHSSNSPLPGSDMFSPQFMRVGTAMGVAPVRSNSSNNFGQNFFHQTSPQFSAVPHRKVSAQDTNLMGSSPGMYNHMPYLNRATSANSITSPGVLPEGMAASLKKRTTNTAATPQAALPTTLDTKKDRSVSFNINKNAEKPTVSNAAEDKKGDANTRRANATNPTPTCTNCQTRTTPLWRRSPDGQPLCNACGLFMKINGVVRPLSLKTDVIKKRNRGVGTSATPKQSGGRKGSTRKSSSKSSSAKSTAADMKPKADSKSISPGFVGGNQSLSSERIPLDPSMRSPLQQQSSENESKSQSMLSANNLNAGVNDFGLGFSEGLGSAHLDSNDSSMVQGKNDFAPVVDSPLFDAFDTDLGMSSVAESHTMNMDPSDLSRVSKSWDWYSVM", "experiment": "EMSA", "details": "10 mM Tris pH 7.5, 2 mM MgCl2, 50 mM NaCl, 1 mM DTT, 5% glycerol, 2 ug poly(dI-dC) in 20 ul, room temperature, 20 min; 6% native PAGE; recombinant protein; residues 1-855; protein details: N-terminal GST (pGEX4T3); label: 32P 5'-end; probe letters rebuilt from the primers and the genome"}, "[2]": {"target": "T1, GST-Gaf1", "experiment": "competition with a labelled probe", "details": "cold PA, 50- and 100-fold, against labeled PA; 10 mM Tris pH 7.5, 2 mM MgCl2, 50 mM NaCl, 1 mM DTT, 5% glycerol, 2 ug poly(dI-dC) in 20 ul, room temperature, 20 min; 6% native PAGE; recombinant protein; residues 1-855; protein details: N-terminal GST (pGEX4T3); label: 32P 5'-end; probe letters rebuilt from the primers and the genome"}}, "note": "Where a protein sequence is shown, tags need not be part of it."}
{"sequence": "ACATATGATGCGAAAGCATTTGTCACTTTTACTTGCCTACAAACGATGTAACACAGCAAACAAAGTCAGGGATTCCCCCCTGTACAAAAGATTAGTGTGGCACTTGGCAAAAAGTCTCGCAAAGCTACTTTTCGTTGAGGGAGATAGCGCAAGGCAAAATGACAAGAAGCCAACGACTAGTCTTCCAATGAATGAGGAATTGTAGAACGCTGGGGAAGTTGGAGAGTTAAGGAGGGGTGGAGAAAGCAAAATAGAGTAAGCGGGCATTTGAAGAGCGGCAATTTGCGAAACCGCAGGGTATTATAGGTAAGGTTTAAGCAAATGTTAAAAGAATAAAAAAGCATAGCGAATGTGTGAAAACAAGTGCCGGCAGTTTGAGTAGTAAGCAAGTGATGAGGAAGTAGTTTGGGGTGAACGGAACGGGAGTGAAATAAGAATGGCGAAGACTTGGAGTCATGATGAAAAATACAGGTACTACGAGCGGAAGGAAAGAAACCACACACATACAATGATTCTATCGAGTCATTGCCATTGGAATTTTGCTACAATTTACCGAAAATTAGGCGTGGGTGCTTGTGTTTCCCTTCCATCATCCCTGGAGATGGCATGC (double strand) [PA]", "values": [{"measurement": "binding result", "setting": "[1]", "value": "binds"}, {"measurement": "binding result", "setting": "[2]", "value": "binds"}]}
